Measured values: paper doi:10.1101/2024.08.06.606614 (bioRxiv, 2024)
No constants are given. Whether binding was seen depends on the method and setting. Some binding calls cover weakened binding; strength is not graded here.

Chains of the proteins cited; added tags and fusions are not shown.
UniProt P63087: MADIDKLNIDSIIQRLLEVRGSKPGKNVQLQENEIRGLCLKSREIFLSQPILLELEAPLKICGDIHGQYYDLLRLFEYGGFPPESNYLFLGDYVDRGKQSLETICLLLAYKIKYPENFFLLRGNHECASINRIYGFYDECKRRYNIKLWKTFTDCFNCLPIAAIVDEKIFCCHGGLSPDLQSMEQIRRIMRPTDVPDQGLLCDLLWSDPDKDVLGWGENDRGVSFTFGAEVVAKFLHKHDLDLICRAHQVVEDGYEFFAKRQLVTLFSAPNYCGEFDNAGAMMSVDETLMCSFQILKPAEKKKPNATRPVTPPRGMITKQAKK
UniProt Q80W93: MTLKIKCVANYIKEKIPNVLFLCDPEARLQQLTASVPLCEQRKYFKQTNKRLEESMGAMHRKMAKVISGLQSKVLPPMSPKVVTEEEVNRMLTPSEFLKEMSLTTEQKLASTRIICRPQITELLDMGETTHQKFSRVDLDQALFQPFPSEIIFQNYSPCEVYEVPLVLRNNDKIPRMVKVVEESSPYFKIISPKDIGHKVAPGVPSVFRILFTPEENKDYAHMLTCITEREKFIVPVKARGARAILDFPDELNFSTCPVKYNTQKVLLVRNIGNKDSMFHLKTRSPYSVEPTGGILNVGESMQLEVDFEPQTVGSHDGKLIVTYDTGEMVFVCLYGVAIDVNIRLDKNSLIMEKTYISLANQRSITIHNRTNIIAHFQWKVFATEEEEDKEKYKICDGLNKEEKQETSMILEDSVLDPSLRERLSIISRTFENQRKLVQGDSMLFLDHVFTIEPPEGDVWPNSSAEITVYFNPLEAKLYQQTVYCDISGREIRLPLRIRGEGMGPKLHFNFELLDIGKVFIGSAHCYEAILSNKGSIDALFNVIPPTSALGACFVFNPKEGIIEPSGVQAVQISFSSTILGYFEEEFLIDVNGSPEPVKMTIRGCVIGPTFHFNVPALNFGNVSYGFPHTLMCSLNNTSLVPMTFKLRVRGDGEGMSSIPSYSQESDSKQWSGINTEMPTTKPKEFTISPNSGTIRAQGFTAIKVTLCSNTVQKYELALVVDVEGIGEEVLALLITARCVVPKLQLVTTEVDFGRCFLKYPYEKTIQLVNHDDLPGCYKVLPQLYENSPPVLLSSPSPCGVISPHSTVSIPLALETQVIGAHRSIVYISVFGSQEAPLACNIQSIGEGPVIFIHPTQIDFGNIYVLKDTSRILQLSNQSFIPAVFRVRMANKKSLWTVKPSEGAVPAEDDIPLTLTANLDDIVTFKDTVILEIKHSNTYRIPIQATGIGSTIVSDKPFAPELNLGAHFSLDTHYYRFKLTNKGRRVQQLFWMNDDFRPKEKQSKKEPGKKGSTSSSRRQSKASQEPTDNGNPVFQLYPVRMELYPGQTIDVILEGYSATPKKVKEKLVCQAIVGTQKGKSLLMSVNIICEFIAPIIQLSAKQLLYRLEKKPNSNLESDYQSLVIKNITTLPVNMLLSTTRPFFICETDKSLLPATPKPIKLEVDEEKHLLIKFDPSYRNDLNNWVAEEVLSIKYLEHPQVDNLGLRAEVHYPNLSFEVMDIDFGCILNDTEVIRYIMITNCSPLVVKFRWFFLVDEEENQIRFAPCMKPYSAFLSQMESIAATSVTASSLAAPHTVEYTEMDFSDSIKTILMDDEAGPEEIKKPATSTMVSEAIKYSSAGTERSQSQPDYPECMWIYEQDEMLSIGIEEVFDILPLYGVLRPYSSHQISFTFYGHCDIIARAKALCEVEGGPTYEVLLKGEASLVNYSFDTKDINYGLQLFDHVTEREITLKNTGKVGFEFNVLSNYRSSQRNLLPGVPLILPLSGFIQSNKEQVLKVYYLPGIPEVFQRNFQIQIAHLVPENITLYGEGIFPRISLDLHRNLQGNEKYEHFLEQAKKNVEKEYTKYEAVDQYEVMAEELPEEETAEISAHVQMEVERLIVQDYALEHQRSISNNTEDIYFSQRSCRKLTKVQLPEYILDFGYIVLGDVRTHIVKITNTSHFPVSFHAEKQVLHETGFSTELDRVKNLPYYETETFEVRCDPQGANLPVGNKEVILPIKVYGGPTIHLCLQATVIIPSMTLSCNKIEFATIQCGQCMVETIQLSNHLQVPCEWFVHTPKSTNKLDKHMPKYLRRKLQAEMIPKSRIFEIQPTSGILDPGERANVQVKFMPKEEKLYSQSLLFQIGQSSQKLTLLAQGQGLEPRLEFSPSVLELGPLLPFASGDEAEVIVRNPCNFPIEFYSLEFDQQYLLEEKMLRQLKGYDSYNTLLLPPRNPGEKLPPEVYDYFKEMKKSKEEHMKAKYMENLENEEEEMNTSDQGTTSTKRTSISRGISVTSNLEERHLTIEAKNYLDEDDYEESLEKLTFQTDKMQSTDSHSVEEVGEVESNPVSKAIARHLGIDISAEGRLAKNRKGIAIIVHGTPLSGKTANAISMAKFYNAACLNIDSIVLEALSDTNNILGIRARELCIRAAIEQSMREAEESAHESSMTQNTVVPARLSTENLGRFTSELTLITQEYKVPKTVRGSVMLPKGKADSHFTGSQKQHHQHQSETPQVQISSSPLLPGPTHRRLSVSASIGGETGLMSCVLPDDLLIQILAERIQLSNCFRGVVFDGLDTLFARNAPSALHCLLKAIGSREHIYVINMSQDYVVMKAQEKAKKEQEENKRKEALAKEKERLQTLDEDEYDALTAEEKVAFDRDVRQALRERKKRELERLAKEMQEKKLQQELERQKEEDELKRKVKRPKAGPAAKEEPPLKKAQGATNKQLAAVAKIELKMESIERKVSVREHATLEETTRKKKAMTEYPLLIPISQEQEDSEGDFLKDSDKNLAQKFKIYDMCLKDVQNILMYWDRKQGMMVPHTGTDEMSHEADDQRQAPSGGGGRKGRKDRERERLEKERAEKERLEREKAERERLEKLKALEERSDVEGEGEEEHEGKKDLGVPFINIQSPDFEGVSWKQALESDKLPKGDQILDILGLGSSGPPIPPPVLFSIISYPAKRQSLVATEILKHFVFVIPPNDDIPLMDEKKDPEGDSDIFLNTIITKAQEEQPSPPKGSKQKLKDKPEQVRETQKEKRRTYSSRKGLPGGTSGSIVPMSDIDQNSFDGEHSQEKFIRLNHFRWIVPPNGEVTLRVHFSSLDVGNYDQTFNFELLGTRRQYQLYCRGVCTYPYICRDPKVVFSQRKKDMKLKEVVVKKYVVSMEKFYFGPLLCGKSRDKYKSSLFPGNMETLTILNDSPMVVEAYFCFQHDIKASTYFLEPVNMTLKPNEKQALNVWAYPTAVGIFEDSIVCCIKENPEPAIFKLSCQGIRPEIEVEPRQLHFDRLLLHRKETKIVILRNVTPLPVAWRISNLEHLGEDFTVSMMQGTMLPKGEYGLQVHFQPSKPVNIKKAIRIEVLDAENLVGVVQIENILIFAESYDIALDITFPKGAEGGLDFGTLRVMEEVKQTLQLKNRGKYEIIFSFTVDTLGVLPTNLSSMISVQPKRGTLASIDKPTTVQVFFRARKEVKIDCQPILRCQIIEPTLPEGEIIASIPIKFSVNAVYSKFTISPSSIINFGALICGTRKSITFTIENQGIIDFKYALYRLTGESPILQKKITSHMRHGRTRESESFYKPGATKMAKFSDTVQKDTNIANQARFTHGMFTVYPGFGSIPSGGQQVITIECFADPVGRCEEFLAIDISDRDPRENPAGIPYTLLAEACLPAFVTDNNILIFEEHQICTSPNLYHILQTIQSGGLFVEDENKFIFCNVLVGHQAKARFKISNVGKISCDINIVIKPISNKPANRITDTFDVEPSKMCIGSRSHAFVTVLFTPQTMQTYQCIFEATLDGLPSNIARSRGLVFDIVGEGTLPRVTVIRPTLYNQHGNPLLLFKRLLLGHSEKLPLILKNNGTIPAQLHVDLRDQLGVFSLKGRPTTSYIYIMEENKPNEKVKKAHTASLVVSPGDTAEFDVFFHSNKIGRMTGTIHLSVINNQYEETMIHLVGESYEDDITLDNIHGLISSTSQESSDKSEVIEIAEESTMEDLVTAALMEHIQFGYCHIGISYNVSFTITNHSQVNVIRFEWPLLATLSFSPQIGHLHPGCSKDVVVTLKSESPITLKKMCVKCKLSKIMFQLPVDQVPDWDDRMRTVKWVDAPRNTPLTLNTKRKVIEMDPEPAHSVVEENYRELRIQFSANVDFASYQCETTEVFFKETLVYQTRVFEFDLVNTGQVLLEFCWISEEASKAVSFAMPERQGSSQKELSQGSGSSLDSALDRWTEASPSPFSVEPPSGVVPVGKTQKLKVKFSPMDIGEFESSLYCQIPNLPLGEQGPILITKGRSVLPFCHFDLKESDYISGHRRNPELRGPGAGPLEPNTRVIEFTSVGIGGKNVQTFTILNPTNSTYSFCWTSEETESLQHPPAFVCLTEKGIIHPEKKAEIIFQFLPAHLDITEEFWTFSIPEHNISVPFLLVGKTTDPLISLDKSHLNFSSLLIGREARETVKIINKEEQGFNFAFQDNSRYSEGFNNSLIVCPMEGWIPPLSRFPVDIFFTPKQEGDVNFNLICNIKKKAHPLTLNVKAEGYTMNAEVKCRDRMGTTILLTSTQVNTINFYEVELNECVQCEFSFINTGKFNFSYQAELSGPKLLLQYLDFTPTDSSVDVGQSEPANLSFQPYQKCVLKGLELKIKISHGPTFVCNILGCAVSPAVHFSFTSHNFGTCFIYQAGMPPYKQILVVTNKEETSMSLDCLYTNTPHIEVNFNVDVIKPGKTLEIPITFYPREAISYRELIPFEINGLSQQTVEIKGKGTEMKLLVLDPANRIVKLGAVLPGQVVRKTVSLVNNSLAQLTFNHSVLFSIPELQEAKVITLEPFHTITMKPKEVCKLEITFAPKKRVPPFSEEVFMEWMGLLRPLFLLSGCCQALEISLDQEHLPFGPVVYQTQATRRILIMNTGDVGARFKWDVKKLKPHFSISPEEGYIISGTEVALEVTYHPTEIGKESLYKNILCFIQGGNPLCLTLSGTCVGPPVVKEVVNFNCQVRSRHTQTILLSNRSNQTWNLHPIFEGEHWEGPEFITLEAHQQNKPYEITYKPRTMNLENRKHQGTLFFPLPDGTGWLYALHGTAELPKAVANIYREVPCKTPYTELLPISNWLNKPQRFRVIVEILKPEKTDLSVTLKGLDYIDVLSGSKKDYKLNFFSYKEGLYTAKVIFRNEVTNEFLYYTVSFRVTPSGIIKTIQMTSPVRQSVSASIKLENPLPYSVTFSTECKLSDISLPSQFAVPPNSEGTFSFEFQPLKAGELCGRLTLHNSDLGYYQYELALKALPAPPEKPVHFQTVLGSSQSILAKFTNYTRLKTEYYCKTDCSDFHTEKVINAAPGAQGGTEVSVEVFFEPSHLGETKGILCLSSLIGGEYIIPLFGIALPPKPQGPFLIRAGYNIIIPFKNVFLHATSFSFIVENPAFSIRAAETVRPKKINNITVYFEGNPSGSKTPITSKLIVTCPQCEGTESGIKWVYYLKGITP

Columns and labels:
[1] = biological target: Serine/threonine-protein phosphatase PP1-gamma catalytic subunit (PPP1CC) (mouse (endogenous in mouse sperm)) (UniProt P63087); assay: cryo-EM structure
[2] = biological target: T1, KIF9 (mouse (endogenous in mouse sperm)) (UniProt Q9WV04); assay: cryo-EM structure
T1 sequence: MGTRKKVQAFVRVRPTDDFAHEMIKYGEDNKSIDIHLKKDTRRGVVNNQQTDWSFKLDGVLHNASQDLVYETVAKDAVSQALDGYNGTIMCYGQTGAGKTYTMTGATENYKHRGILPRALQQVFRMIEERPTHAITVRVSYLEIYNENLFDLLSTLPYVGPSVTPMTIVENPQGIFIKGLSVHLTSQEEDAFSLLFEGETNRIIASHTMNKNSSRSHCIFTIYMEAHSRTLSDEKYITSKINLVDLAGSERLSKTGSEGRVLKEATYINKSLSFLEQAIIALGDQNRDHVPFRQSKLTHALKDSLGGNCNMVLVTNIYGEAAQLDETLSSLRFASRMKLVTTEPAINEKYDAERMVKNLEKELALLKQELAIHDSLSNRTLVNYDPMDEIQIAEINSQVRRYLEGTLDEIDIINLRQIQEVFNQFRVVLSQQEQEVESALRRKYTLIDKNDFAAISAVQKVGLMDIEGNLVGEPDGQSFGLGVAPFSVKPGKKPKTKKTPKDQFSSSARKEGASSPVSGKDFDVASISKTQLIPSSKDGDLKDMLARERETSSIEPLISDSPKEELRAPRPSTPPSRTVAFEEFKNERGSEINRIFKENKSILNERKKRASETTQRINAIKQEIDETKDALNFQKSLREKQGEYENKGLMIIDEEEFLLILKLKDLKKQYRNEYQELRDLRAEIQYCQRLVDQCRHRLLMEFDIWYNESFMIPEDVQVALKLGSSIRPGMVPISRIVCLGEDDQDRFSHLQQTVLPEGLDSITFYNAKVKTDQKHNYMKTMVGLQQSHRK

| binding [1] | binding [2] | Substance |
| --- | --- | --- |
| binds | – | CFAP54 (from UniProt Q8C6S9 1-3106) |
| – | binds | HYDIN (from UniProt Q80W93 1-5154) |
